The target of this test is KLC2-TPR^[A1-B6] (mouse kinesin light chain 2 TPR domain, TPR motifs 1 to 6, residues 190–484) (mouse) (UniProt O88448). The experiment in a line: SEC-MALS; SEC-MALLS of KLC2-TPR[A1-B6] on Superdex 200 10/300 GL increase, 20mM Hepes pH 7.0, 300mM (salt not given), 0.5 ml/min; both purified. A general note: In gel filtration, larger molecules generally elute earlier.

No constants are given. Whether binding was seen depends on the method and setting.

B1: KLC2-TPR^[A1-B6] (mouse kinesin light chain 2 TPR domain, TPR motifs 1 to 6, residues 190–484) (domain or fragment, UniProt O88448 190-484)
chain: GYEIPARLRTLHNLVIQYASQGRYEVAVPLCKQALEDLEKTSGHDHPDVATMLNILALVYRDQNKYKDAAHLLNDALAIREKTLGKDHPAVAATLNNLAVLYGKRGKYKEAEPLCKRALEIREKVLGKFHPDVAKQLSNLALLCQNQGKAEEVEYYYRRALEIYATRLGPDDPNVAKTKNNLASCYLKQGKYQDAETLYKEILTRAHEKEFGSVNGENKPIWMHAEEREESKDKRRDRRPMEYGSWYKACKVDSPTVNTTLRTLGALYRPEGKLEAAHTLEDCASRSRKQGLDPA
On to B1, for which the binding entry is recorded as “no binding”.

The values are drawn from paper PMC5642895.
